# From the supplement of paper PMC8728848
# This is one part of the list.
# What was measured:
# Assay in all cases: glycan array binding signal (z-score within array); higher = stronger binding
# Conditions in all cases: glycan notation: IUPAC condensed, linker removed
# Kdn(a2-3)Gal(b1-4)Glc = target: Kdn(a2-3)Gal(b1-4)Glc
# Method in brief: (§1)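 Glycan array data were curated from 3228 arrays in the Consortium for Functional Glycomics database and kept only where the protein sequence was available. Glycan names were converted to IUPAC-condensed notation, and columns mapping to the same glycan were averaged. The binding signal is a within-array Z-score, averaged across arrays of the same protein sequence at different concentrations or buffers and across linkers. Negative Z-scores can be read as non-binding.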
# Kdn(a2-3)Gal(b1-4)GlcNAc = target: Kdn(a2-3)Gal(b1-4)GlcNAc
# Method in brief: as §1
# [1] = target: Kdn(a2-3)Gal(b1-4)[Fuc(a1-3)]GlcNAc
# Method in brief: as §1
# Kdn(a2-6)Gal(b1-4)GlcNAc = target: Kdn(a2-6)Gal(b1-4)GlcNAc
# Method in brief: as §1
# [2] = target: Man(a1-2)Man(a1-2)Man(a1-3)Man
# Method in brief: as §1
# [3] = target: Man(a1-2)Man(a1-2)Man(a1-6)[Man(a1-3)]Man
# Method in brief: as §1
# Man(a1-2)Man(a1-3)Man = target: Man(a1-2)Man(a1-3)Man
# Method in brief: as §1
# [4] = target: Man(a1-2)Man(a1-3)[Man(a1-2)Man(a1-6)]Man
# Method in brief: as §1
# [5] = target: Man(a1-2)Man(a1-3)[Man(a1-2)Man(a1-6)]Man(a1-6)[Man(a1-2)Man(a1-2)Man(a1-3)]Man
# Method in brief: as §1
# [6] = target: Man(a1-2)Man(a1-3)[Man(a1-2)Man(a1-6)]Man(a1-6)[Man(a1-2)Man(a1-2)Man(a1-3)]Man(b1-4)GlcNAc(b1-4)GlcNAc
# Method in brief: as §1
# [7] = target: Man(a1-2)Man(a1-3)[Man(a1-6)]Man(a1-6)[Man(a1-2)Man(a1-3)]Man(b1-4)GlcNAc(b1-4)GlcNAc
# Method in brief: as §1
# [8] = target: Man(a1-2)Man(a1-6)[Man(a1-3)]Man(a1-6)[Man(a1-2)Man(a1-2)Man(a1-3)]Man
# Method in brief: as §1
# [9] = target: Man(a1-2)Man(a1-6)[Man(a1-3)]Man(a1-6)[Man(a1-2)Man(a1-2)Man(a1-3)]Man(b1-4)GlcNAc(b1-4)GlcNAc
# Method in brief: as §1
# Man(a1-3)[Man(a1-6)]Man = target: Man(a1-3)[Man(a1-6)]Man
# Method in brief: as §1
# [10] = target: Man(a1-3)[Man(a1-6)]Man(a1-6)[Man(a1-2)Man(a1-3)]Man(b1-4)GlcNAc(b1-4)GlcNAc
# Method in brief: as §1
# [11] = target: Man(a1-3)[Man(a1-6)]Man(a1-6)[Man(a1-3)]Man
# Method in brief: as §1
# [12] = target: Man(a1-3)[Man(a1-6)]Man(a1-6)[Man(a1-3)]Man(b1-4)GlcNAc(b1-4)GlcNAc
# Method in brief: as §1
# [13] = target: Man(a1-3)[Man(a1-6)]Man(b1-4)GlcNAc(b1-4)GlcNAc
# Method in brief: as §1
# [14] = target: Man(a1-3)[Man(a1-6)]Man(b1-4)GlcNAc(b1-4)[Fuc(a1-6)]GlcNAc
# Method in brief: as §1
# Man(a1-6)Man = target: Man(a1-6)Man
# Method in brief: as §1
# Man(b1-4)GlcNAc = target: Man(b1-4)GlcNAc
# Method in brief: as §1
# MurNAc(b1-4)GlcNAc = target: MurNAc(b1-4)GlcNAc
# Method in brief: as §1
# Neu5Ac(a2-3)Gal = target: Neu5Ac(a2-3)Gal
# Method in brief: as §1
# [15] = target: Neu5Ac(a2-3)Gal(b1-3)GalNAc
# Method in brief: as §1
# [16] = target: Neu5Ac(a2-3)Gal(b1-3)GalNAc(b1-3)Gal(a1-4)Gal(b1-4)Glc
# Method in brief: as §1
# [17] = target: Neu5Ac(a2-3)Gal(b1-3)GalNAc(b1-4)[Neu5Ac(a2-3)]Gal(b1-4)Glc
# Method in brief: as §1
# [18] = target: Neu5Ac(a2-3)Gal(b1-3)GalNAc(b1-4)[Neu5Ac(a2-8)Neu5Ac(a2-3)]Gal(b1-4)Glc
# Method in brief: as §1
# [19] = target: Neu5Ac(a2-3)Gal(b1-3)GalNAc6S
# Method in brief: as §1
# [20] = target: Neu5Ac(a2-3)Gal(b1-3)GlcNAc
# Method in brief: as §1
# [21] = target: Neu5Ac(a2-3)Gal(b1-3)GlcNAc(b1-2)Man
# Method in brief: as §1
# [22] = target: Neu5Ac(a2-3)Gal(b1-3)GlcNAc(b1-2)Man(a1-3)[GlcNAc(b1-4)][Neu5Ac(a2-3)Gal(b1-3)GlcNAc(b1-2)Man(a1-6)]Man(b1-4)GlcNAc(b1-4)GlcNAc
# Method in brief: as §1
# [23] = target: Neu5Ac(a2-3)Gal(b1-3)GlcNAc(b1-2)Man(a1-3)[Neu5Ac(a2-3)Gal(b1-3)GlcNAc(b1-2)Man(a1-6)]Man(b1-4)GlcNAc(b1-4)GlcNAc
# Method in brief: as §1
# [24] = target: Neu5Ac(a2-3)Gal(b1-3)GlcNAc(b1-3)Gal(b1-3)GlcNAc
# Method in brief: as §1
# [25] = target: Neu5Ac(a2-3)Gal(b1-3)GlcNAc(b1-3)Gal(b1-4)GlcNAc
# Method in brief: as §1
# [26] = target: Neu5Ac(a2-3)Gal(b1-3)GlcNAc(b1-3)GalNAc
# Method in brief: as §1
# [27] = target: Neu5Ac(a2-3)Gal(b1-3)GlcNAc(b1-4)Gal(b1-4)Glc
# Method in brief: as §1
# [28] = target: Neu5Ac(a2-3)Gal(b1-3)GlcNAc(b1-6)GalNAc
# Method in brief: as §1
# [29] = target: Neu5Ac(a2-3)Gal(b1-3)GlcNAc6S
# Method in brief: as §1
binder,measurement,setting,value
PX9961M-bvu-482-23-482 (Bacteroides vulgatus) (protein) WLDLAPSTQVDTETSINVLSDIEFTLNGIYSTMQSSDAYSGRLVYYGDVTGDDMQAVSSTKRTGNYYRFNFTKDNGPSSHWSYLYSIIQNCNLILMNVDKLSIDEDETEYKNDLKGQALAIRGMALFDLTRIFGYPYLKDNGASLGVPIVKELSTIDSKPARNTVAECYTEIISDLKNSTELLSGDFNKGKVNRWAAMTLLSRVYLYKGEYNEALTMAENAIKGAEKEGYALWTNEEYPTAWGNDASASNPGEILFEIVNLTTDSPGKESMGYLNSYNGYDDMCITCSFYQLLKKDPKDVRLKILSFDKKYYAYVNKYQPQQGENITDANIPLIRLSEAYLNAAEAAVQTGDNAKAVKYLNSIVQRANPENSVEGKTLTLENVLDERRKELVAEGHRMYDVIRNGMTVKRIDVKDSDINKTKHNTAYMEYDWNFHKILLPIPKKEMDANPNMKQNPGYVD,glycan array binding signal (z-score),Kdn(a2-3)Gal(b1-4)Glc,0.964
same,glycan array binding signal (z-score),Kdn(a2-3)Gal(b1-4)GlcNAc,0.088
same,glycan array binding signal (z-score),[1],0.143
same,glycan array binding signal (z-score),Kdn(a2-6)Gal(b1-4)GlcNAc,-0.275
same,glycan array binding signal (z-score),[2],-0.771
same,glycan array binding signal (z-score),[3],0.455
same,glycan array binding signal (z-score),Man(a1-2)Man(a1-3)Man,-0.314
same,glycan array binding signal (z-score),[4],-0.326
same,glycan array binding signal (z-score),[5],-0.849
same,glycan array binding signal (z-score),[6],-0.156
same,glycan array binding signal (z-score),[7],-0.917
same,glycan array binding signal (z-score),[8],-0.582
same,glycan array binding signal (z-score),[9],-0.222
same,glycan array binding signal (z-score),Man(a1-3)[Man(a1-6)]Man,-0.711
same,glycan array binding signal (z-score),[10],0.063
same,glycan array binding signal (z-score),[11],2.74
same,glycan array binding signal (z-score),[12],0.781
same,glycan array binding signal (z-score),[13],-0.322
same,glycan array binding signal (z-score),[14],-0.449
same,glycan array binding signal (z-score),Man(a1-6)Man,-0.459
same,glycan array binding signal (z-score),Man(b1-4)GlcNAc,-0.469
same,glycan array binding signal (z-score),MurNAc(b1-4)GlcNAc,0.229
same,glycan array binding signal (z-score),Neu5Ac(a2-3)Gal,-0.037
same,glycan array binding signal (z-score),[15],-0.391
same,glycan array binding signal (z-score),[16],-0.335
same,glycan array binding signal (z-score),[17],-0.476
same,glycan array binding signal (z-score),[18],0.996
same,glycan array binding signal (z-score),[19],-0.6
same,glycan array binding signal (z-score),[20],-0.551
same,glycan array binding signal (z-score),[21],0.535
same,glycan array binding signal (z-score),[22],-0.624
same,glycan array binding signal (z-score),[23],-0.296
same,glycan array binding signal (z-score),[24],-1.15
same,glycan array binding signal (z-score),[25],0.527
same,glycan array binding signal (z-score),[26],0.035
same,glycan array binding signal (z-score),[27],-0.756
same,glycan array binding signal (z-score),[28],-0.758
same,glycan array binding signal (z-score),[29],-0.059

# Retrieved one by one from above, 2 records:
binder,measurement,setting,value
PX9961M-bvu-482-23-482 (Bacteroides vulgatus) (protein) WLDLAPSTQVDTETSINVLSDIEFTLNGIYSTMQSSDAYSGRLVYYGDVTGDDMQAVSSTKRTGNYYRFNFTKDNGPSSHWSYLYSIIQNCNLILMNVDKLSIDEDETEYKNDLKGQALAIRGMALFDLTRIFGYPYLKDNGASLGVPIVKELSTIDSKPARNTVAECYTEIISDLKNSTELLSGDFNKGKVNRWAAMTLLSRVYLYKGEYNEALTMAENAIKGAEKEGYALWTNEEYPTAWGNDASASNPGEILFEIVNLTTDSPGKESMGYLNSYNGYDDMCITCSFYQLLKKDPKDVRLKILSFDKKYYAYVNKYQPQQGENITDANIPLIRLSEAYLNAAEAAVQTGDNAKAVKYLNSIVQRANPENSVEGKTLTLENVLDERRKELVAEGHRMYDVIRNGMTVKRIDVKDSDINKTKHNTAYMEYDWNFHKILLPIPKKEMDANPNMKQNPGYVD,glycan array binding signal (z-score),Man(a1-6)Man,-0.459
same,glycan array binding signal (z-score),[7],-0.917
